Assay: Extraction of phenol from 1% aqueous solution with high boiling solvents alone and with TOPO (Example 3, Table III)
Format: physicochemical
Settings: for extraction efficiency in the presence of TOPO: solvent + TOPO, A/O ratios of 0.5 and 1.0; for extraction efficiency when used alone: solvent alone
Experimental: A number of high boiling solvents, which would allow recovery of the extracted phenol without the necessity of distilling the solvent, were evaluted and the distribution coefficient calculated for the solvent alone and containing 133 g/l of TOPO. The aqueous solution extracted contained 1% phenol, which was contacted with the solvent or solvent plus TOPO for 10 minutes at 24° C.

Row | Substance | extraction efficiency in the presence of TOPO | extraction efficiency when used alone
1 | Diisopropyl naphthalene | surprisingly efficient in the presence of TOPO | inefficient when used alone
2 | Isopropyl naphthalene | surprisingly efficient in the presence of TOPO | inefficient when used alone

— patent US4420643A, “Extraction of phenols from aqueous solutions” (priority 1982, dated 1983)
